Source: the supplement of paper PMC10849652
The other results are listed elsewhere or left out.

Protein sequences, listed by entry. Tags and fused reporters are not part of them. Lines headed by an entry give the natural chain unless they say otherwise; changes in a name come on top.
UniProt O75608: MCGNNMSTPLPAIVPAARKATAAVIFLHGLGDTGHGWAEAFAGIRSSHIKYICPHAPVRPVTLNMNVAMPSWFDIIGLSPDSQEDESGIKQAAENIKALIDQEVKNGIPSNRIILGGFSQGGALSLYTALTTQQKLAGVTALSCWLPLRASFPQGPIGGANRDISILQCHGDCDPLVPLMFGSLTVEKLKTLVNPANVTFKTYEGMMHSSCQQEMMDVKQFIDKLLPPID
UniProt Q9UKM7: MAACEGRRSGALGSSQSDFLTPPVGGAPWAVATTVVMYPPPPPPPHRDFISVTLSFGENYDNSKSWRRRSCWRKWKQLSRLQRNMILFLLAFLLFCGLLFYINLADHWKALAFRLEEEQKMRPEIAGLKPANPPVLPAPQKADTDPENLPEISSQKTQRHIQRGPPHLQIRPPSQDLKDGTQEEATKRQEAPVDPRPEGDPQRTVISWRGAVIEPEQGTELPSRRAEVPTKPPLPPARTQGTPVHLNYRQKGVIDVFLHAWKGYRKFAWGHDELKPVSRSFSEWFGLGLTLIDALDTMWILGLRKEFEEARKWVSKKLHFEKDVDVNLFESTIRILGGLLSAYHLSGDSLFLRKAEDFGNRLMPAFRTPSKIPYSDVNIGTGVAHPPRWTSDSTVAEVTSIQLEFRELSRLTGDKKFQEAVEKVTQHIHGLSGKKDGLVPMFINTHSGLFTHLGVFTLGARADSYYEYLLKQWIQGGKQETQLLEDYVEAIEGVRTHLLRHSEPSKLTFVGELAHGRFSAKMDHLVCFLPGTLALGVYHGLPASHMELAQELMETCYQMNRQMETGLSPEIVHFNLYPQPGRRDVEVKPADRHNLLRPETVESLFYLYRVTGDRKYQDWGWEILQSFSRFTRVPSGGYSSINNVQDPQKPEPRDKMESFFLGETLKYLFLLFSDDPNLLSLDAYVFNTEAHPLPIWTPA
UniProt Q9NU23: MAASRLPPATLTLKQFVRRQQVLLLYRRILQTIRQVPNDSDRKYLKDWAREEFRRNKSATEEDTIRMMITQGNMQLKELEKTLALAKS
UniProt Q6ZN28: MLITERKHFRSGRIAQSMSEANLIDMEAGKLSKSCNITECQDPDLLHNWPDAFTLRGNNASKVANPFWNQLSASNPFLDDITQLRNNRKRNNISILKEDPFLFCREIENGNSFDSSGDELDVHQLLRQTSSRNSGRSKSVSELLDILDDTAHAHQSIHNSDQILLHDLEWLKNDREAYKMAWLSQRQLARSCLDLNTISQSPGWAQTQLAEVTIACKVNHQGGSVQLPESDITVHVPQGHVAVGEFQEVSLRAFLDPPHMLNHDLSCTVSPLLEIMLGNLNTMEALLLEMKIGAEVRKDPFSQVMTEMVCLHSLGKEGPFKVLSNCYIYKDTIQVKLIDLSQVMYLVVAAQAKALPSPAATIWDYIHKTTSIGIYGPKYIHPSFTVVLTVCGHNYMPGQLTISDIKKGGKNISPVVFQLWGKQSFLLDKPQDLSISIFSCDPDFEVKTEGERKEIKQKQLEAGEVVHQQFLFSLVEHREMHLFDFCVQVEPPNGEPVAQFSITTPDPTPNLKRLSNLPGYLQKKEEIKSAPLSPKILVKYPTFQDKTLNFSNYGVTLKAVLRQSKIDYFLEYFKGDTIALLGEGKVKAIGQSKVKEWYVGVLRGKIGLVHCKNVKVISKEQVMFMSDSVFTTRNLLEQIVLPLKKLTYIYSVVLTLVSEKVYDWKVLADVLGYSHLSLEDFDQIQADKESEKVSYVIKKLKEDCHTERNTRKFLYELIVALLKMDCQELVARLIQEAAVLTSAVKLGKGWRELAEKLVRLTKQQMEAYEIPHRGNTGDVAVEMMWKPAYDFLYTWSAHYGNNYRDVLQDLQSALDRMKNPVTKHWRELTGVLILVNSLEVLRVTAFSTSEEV
UniProt O00754: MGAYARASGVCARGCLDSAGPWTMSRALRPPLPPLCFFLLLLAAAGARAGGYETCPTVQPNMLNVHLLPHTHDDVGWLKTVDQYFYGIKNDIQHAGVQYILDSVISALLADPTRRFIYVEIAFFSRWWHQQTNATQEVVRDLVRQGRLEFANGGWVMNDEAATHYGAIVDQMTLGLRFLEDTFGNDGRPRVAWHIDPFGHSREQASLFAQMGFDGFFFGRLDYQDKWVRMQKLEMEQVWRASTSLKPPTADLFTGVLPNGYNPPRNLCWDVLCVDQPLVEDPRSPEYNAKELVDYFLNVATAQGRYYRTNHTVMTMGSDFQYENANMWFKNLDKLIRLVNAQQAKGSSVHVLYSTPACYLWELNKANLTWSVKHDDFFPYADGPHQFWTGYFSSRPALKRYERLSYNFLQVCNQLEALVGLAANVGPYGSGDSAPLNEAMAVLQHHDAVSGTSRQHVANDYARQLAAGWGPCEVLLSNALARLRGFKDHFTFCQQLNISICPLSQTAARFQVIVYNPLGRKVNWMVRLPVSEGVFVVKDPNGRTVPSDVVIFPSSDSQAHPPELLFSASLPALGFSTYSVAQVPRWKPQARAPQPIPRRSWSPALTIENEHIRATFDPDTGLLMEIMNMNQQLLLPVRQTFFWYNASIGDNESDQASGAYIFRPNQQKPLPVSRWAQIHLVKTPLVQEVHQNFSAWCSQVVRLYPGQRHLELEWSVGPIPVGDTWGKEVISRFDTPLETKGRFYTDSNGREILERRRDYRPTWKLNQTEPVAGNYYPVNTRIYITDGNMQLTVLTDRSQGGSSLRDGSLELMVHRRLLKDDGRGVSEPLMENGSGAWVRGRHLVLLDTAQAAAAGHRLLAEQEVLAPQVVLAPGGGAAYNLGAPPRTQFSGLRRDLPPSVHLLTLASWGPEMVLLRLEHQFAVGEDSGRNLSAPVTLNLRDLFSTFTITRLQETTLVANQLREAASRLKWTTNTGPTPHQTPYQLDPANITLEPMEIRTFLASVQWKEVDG
UniProt P43366: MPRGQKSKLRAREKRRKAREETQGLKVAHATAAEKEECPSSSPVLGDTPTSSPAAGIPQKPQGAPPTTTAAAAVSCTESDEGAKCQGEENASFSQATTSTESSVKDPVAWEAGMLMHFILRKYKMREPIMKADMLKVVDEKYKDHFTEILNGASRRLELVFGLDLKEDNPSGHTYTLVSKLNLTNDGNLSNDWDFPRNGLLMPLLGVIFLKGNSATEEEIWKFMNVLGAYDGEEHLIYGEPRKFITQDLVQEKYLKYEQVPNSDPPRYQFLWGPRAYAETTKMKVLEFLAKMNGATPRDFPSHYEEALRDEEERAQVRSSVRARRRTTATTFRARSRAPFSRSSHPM
UniProt Q9Y250: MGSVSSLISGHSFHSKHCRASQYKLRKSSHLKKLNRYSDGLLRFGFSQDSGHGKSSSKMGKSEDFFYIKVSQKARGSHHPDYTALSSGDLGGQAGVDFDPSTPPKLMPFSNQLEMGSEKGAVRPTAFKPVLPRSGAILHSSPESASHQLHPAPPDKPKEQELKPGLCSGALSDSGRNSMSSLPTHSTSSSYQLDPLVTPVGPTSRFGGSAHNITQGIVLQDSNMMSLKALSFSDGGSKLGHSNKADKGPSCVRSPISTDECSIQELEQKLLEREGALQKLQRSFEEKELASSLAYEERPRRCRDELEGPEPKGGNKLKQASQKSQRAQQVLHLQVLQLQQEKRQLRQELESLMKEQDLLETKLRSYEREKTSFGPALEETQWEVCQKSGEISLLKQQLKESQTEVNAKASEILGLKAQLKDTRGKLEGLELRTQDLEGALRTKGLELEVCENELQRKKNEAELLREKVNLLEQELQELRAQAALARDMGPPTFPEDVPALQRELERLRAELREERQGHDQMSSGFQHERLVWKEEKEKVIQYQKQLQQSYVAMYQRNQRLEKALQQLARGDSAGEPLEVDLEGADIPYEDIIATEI
UniProt P29966: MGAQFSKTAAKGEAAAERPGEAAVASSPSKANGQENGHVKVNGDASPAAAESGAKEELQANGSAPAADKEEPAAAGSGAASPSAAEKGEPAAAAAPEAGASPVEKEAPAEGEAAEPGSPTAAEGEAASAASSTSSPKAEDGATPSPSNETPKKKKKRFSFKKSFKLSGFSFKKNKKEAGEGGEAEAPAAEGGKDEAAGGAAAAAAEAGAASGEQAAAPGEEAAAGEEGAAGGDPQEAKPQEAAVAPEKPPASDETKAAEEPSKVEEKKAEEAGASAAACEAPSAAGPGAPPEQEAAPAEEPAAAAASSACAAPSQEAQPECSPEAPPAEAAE
UniProt Q9Y2E5: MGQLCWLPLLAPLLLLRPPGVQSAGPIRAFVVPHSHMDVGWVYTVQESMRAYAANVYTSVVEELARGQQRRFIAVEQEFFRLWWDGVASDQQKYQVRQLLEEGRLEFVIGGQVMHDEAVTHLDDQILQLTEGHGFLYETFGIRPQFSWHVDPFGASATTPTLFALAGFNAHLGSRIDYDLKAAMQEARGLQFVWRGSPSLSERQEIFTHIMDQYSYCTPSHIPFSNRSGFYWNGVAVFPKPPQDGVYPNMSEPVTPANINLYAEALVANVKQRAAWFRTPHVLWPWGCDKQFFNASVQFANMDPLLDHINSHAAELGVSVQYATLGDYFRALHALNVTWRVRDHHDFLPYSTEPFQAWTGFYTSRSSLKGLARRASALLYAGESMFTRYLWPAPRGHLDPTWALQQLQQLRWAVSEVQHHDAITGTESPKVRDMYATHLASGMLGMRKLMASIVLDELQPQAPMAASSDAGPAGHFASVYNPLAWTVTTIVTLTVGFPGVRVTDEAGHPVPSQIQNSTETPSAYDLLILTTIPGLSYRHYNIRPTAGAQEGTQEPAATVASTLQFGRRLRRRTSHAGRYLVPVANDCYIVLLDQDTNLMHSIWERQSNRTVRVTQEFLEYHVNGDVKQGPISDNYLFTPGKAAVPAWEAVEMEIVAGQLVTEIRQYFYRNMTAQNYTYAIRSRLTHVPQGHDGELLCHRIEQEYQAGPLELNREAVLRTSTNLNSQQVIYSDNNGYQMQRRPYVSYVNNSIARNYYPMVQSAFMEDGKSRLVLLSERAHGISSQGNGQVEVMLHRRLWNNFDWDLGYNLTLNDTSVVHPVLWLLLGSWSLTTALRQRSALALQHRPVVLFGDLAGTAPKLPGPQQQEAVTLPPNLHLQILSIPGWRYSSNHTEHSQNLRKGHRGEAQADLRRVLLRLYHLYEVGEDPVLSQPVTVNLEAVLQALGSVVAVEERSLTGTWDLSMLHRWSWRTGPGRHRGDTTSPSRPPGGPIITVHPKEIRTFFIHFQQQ
UniProt Q9NX47: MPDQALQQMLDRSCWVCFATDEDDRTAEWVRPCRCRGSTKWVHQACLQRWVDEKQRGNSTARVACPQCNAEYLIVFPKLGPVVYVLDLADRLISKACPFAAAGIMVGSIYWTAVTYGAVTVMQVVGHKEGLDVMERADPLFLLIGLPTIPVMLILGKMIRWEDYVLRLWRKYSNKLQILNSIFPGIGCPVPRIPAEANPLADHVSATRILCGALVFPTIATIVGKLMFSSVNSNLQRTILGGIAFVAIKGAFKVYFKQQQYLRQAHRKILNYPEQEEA
UniProt Q13257, whole entry, looked up: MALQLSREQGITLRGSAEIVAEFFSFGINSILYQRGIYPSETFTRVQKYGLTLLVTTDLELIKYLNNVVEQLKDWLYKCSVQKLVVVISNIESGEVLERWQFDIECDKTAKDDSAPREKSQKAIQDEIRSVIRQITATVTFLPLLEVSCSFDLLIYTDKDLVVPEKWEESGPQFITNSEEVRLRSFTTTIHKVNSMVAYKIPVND
UniProt O95372: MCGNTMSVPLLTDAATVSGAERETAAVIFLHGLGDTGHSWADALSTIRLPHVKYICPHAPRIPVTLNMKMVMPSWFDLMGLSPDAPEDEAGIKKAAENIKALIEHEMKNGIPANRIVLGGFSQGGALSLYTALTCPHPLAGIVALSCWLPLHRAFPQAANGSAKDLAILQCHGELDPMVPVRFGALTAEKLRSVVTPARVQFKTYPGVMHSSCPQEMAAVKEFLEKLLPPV

Assays:
Experiment in all cases: log2 fold change, soluble protein after heating vs DMSO (PISA); higher = thermal stabilisation; K562 lysate, 10 uM; active = over 0.2 and 3.5 SD of the protein, either way, in both replicates (recomputed)
[1] = compound: CS(=O)(=O)CCNCc1ccc(-c2ccc3ncnc(Nc4ccc(OCc5cccc(F)c5)c(Cl)c4)c3c2)o1 [lapatinib]
Summary of the method: (§1)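 Thermal stability, expressed as log-two fold change relative to solvent controls, is given from duplicates. Crude K562 extract in PBS pH 7.4 with 1 mM MgCl2, at 1 mg/mL protein, was treated with 10 μM compound for 30 min and heated in aliquots for 3 min across 48°C-58°C. After pooling, adjustment to 0.5% NP-40 at 4°C and centrifugation at 21,000xg for 90 min, supernatant protein was measured by TMTpro 16plex LC-MS/MS with channel sums equalised.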

[2] = compound: CS(=O)(=O)N1CCN(Cc2cc3nc(-c4cccc5[nH]ncc45)nc(N4CCOCC4)c3s2)CC1 [pictilisib]
Summary of the method: as §1

[3] = compound: C[C@@H](Oc1cc(-c2cnn(C3CCNCC3)c2)cnc1N)c1c(Cl)ccc(F)c1Cl [crizotinib]
Summary of the method: as §1

[4] = compound: C[C@H](C1=CC=C(C=C1)C(=O)NC2=C3C=CNC3=NC=C2)N
Summary of the method: as §1

[5] = compound: C[C@H](Nc1ncnc2nc[nH]c12)c1cc2cccc(Cl)c2c(=O)n1-c1ccccc1 [duvelisib]
Summary of the method: as §1

[6] = compound: Cc1cc(Nc2cc(CN3CCOCC3)c3nc(C)c(Cc4ccc(Cl)cc4F)n3n2)n[nH]1 [gandotinib]
Summary of the method: as §1

[7] = compound: Cc1cc(Nc2cc(N3CCN(C)CC3)nc(Sc3ccc(NC(=O)C4CC4)cc3)n2)n[nH]1 [tozasertib]
Summary of the method: as §1

[8] = compound: Cc1ccc(-n2nc(C(C)(C)C)cc2NC(=O)Nc2ccc(OCCN3CCOCC3)c3ccccc23)cc1 [doramapimod]
Summary of the method: as §1

[9] = compound: Cc1ccc(NC(=O)c2ccc(CN3CC[C@H](N(C)C)C3)c(C(F)(F)F)c2)cc1Nc1nccc(-c2cncnc2)n1 [bafetinib]
Summary of the method: as §1

[10] = compound: Cc1cccc(CC(=O)N2CCc3c2ccc(-c2cn(C)c4ncnc(N)c24)c3F)n1
Summary of the method: as §1

[11] = compound: Cc1cn(-c2cc(NC(=O)c3ccc(C)c(Nc4nccc(-c5cccnc5)n4)c3)cc(C(F)(F)F)c2)cn1 [nilotinib]
Summary of the method: as §1

[12] = compound: Cc1nc(Nc2n[nH]c3c2CN(C(=O)N[C@H](CN(C)C)c2ccccc2)C3(C)C)c2sccc2n1
Summary of the method: as §1

[13] = compound: Cc1nc(Nc2ncc(C(=O)Nc3c(C)cccc3Cl)s2)cc(N2CCN(CCO)CC2)n1 [dasatinib]
Summary of the method: as §1

[14] = compound: Cc1ncc(-c2ccnc(Nc3ccc(S(C)(=O)=O)cc3)n2)n1C(C)C
Summary of the method: as §1

[15] = compound: Cn1cc(-c2ccc3c(c2)CCN3C(=O)Cc2cccc(C(F)(F)F)c2)c2c(N)ncnc21
Summary of the method: as §1

[16] = compound: Cn1cc(CNCC2CCN(c3ncc(C(=O)NO)cn3)CC2)c2ccccc21 [quisinostat]
Summary of the method: as §1

[17] = compound: Cn1cncc1[C@@](N)(c1ccc(Cl)cc1)c1ccc2c(c1)c(-c1cccc(Cl)c1)cc(=O)n2C [tipifarnib]
Summary of the method: as §1

[18] = compound: NC(=O)Nc1cc(-c2cccc(F)c2)sc1C(=O)N[C@H]1CCCNC1
Summary of the method: as §1

[19] = compound: NC(=O)c1cnc(N[C@@H]2CCCC[C@@H]2N)nc1Nc1cccc(-n2nccn2)c1
Summary of the method: as §1

[20] = compound: NC1(c2ccc(-c3nc4ccn5c(=O)[nH]nc5c4cc3-c3ccccc3)cc2)CCC1
Summary of the method: as §1

Row | Target | log2 fold change [1] | log2 fold change [2] | log2 fold change [3] | log2 fold change [4] | log2 fold change [5] | log2 fold change [6] | log2 fold change [7] | log2 fold change [8] | log2 fold change [9] | log2 fold change [10] | log2 fold change [11] | log2 fold change [12] | log2 fold change [13] | log2 fold change [14] | log2 fold change [15] | log2 fold change [16] | log2 fold change [17] | log2 fold change [18] | log2 fold change [19] | log2 fold change [20]
1 | LYPLA1 (UniProt O75608) | inactive: 0.001 | inactive: 0.035 | inactive: 0.029 | inactive: 0.077 | inactive: -0.015 | inactive: -0.077 | inactive: 0.047 | inactive: 0.012 | inactive: -0.018 | inactive: -0.074 | inactive: 0.01 | inactive: 0.034 | inactive: -0.006 | inactive: 0.018 | inactive: 0.033 | inactive: 0.038 | inactive: 0.054 | inactive: -0.009 | inactive: -0.024 | inactive: -0.007
2 | MARK3 (UniProt P27448) | inactive: 0.007 | inactive: -0.061 | inactive: -0.206 | inactive: 0.043 | inactive: 0.011 | inactive: -0.089 | inactive: -0.143 | inactive: -0.081 | inactive: -0.088 | inactive: 0.049 | inactive: 0.013 | inactive: -0.004 | inactive: -0.186 | inactive: -0.05 | inactive: 0.014 | inactive: 0.172 | inactive: -0.072 | inactive: -0.08 | inactive: -0.029 | inactive: -0.06
3 | MAN1B1 (UniProt Q9UKM7) | inactive: -0.023 | inactive: -0.006 | inactive: -0.05 | inactive: -0.121 | inactive: -0.06 | inactive: 0.03 | inactive: -0.048 | inactive: -0.03 | inactive: 0.008 | inactive: 0.091 | inactive: 0.014 | inactive: -0.009 | inactive: 0.013 | inactive: -0.046 | inactive: 0.067 | inactive: 0.007 | inactive: -0.1 | inactive: 0.03 | inactive: -0.007 | inactive: -0.009
4 | LYRM2 (UniProt Q9NU23) | inactive: -0.044 | inactive: 0.019 | inactive: 0.056 | inactive: -0.029 | inactive: -0.013 | inactive: 0.027 | inactive: 0.022 | inactive: -0.066 | inactive: -0.02 | inactive: 0.048 | inactive: -0.001 | inactive: -0.011 | inactive: 0.088 | inactive: 0.02 | inactive: 0.015 | inactive: -0.016 | inactive: 0.015 | inactive: 0.028 | inactive: -0.005 | inactive: -0.033
5 | MACC1 (UniProt Q6ZN28) | inactive: -0.041 | inactive: -0.094 | inactive: -0.067 | inactive: 0.034 | inactive: 0.003 | inactive: -0.031 | inactive: -0.049 | inactive: 0.072 | inactive: -0.153 | inactive: 0.053 | inactive: -0.014 | inactive: -0.074 | inactive: -0.073 | inactive: 0.005 | inactive: 0.057 | inactive: -0.045 | inactive: -0.016 | inactive: 0.032 | inactive: -0.043 | inactive: 0.02
6 | LZTR1 (UniProt Q8N653) | inactive: 0.177 | inactive: -0.031 | inactive: -0.092 | inactive: 0.135 | inactive: -0.033 | inactive: -0.121 | inactive: -0.023 | inactive: 0.083 | inactive: 0.005 | inactive: 0.026 | inactive: 0.016 | inactive: 0.014 | inactive: -0.063 | inactive: -0.068 | inactive: 0.008 | inactive: -0.029 | inactive: -0.036 | inactive: 0.099 | inactive: -0.033 | inactive: -0.019
7 | MAST4 (UniProt O15021) | inactive: -0.12 | inactive: 0.122 | inactive: 0.079 | inactive: -0.065 | inactive: -0.089 | inactive: 0.374 | inactive: 0.274 | inactive: -0.121 | inactive: -0.103 | inactive: 0.017 | inactive: -0.078 | inactive: 0.114 | inactive: 0.001 | inactive: 0.08 | inactive: 0.04 | inactive: 0.104 | inactive: 0.012 | inactive: 0.073 | inactive: 0.021 | inactive: 0.059
8 | MAN2B1 (UniProt O00754) | inactive: 0.013 | inactive: -0.001 | inactive: 0.074 | inactive: 0 | inactive: 0.076 | inactive: 0.032 | inactive: -0.03 | inactive: -0.065 | inactive: 0.013 | inactive: -0.063 | inactive: -0.078 | inactive: -0.083 | inactive: 0.037 | inactive: -0.167 | inactive: 0.044 | inactive: -0.036 | inactive: 0 | inactive: 0.048 | inactive: -0.019 | inactive: -0.015
9 | MAGEB1 (UniProt P43366) | inactive: -0.008 | inactive: -0.03 | inactive: -0.036 | inactive: -0.003 | inactive: 0.012 | inactive: -0.069 | inactive: -0.009 | inactive: -0.002 | inactive: -0.034 | inactive: 0.01 | inactive: -0.022 | inactive: 0.026 | inactive: -0.027 | inactive: 0.022 | inactive: 0.02 | inactive: -0.098 | inactive: 0.01 | inactive: 0.035 | inactive: -0.001 | inactive: -0.008
10 | LZTS1 (UniProt Q9Y250) | inactive: -0.136 | inactive: -0.222 | inactive: -0.821 | inactive: -0.233 | inactive: 0.308 | inactive: -0.137 | inactive: -0.1 | inactive: 0.177 | inactive: -0.268 | inactive: 0.083 | inactive: -0.13 | inactive: 0.023 | inactive: 0.056 | inactive: 0.167 | inactive: -0.266 | active: -1.06 | inactive: 0.087 | inactive: 0.186 | inactive: -0.02 | inactive: -0.297
11 | MAP3K20 isoform 2 (UniProt Q9NYL2) | inactive: -0.121 | inactive: -0.102 | inactive: -0.013 | inactive: -0.206 | inactive: -0.003 | inactive: 0.028 | inactive: -0.155 | inactive: 0.122 | inactive: 0.187 | inactive: 0.222 | inactive: 0.147 | inactive: -0.047 | inactive: -0.034 | inactive: -0.041 | inactive: 0.118 | inactive: 0.003 | inactive: -0.13 | inactive: -0.008 | inactive: -0.006 | inactive: -0.102
12 | MARCKS (UniProt P29966) | inactive: -0.047 | inactive: -0.028 | inactive: 0.036 | inactive: -0.05 | inactive: 0.077 | inactive: 0.017 | inactive: 0.059 | inactive: -0.031 | inactive: 0.144 | inactive: -0.022 | inactive: 0.056 | inactive: 0.02 | inactive: 0.033 | inactive: -0.014 | inactive: 0.002 | inactive: -0.045 | inactive: 0.001 | inactive: -0.024 | inactive: -0.037 | inactive: 0.083
13 | MAN2B2 (UniProt Q9Y2E5) | inactive: 0.01 | inactive: 0.021 | inactive: 0 | active: 0.595 | inactive: -0.018 | inactive: -0.38 | inactive: 0.003 | inactive: -0.028 | inactive: -0.12 | active: -0.546 | inactive: -0.039 | inactive: -0.173 | inactive: 0.051 | inactive: -0.004 | inactive: 0.011 | inactive: -0.033 | inactive: -0.041 | inactive: 0.04 | inactive: 0.038 | inactive: 0.033
14 | MARCHF5 (UniProt Q9NX47) | inactive: -0.056 | inactive: -0.034 | inactive: -0.066 | inactive: -0.166 | inactive: 0.004 | inactive: 0.055 | inactive: -0.102 | inactive: -0.034 | inactive: 0.096 | inactive: 0.017 | inactive: 0.093 | inactive: -0.009 | inactive: -0.064 | inactive: -0.033 | inactive: -0.052 | inactive: -0.027 | inactive: 0.013 | inactive: 0.014 | inactive: -0.027 | inactive: 0.017
15 | MAD2L1 (UniProt Q13257) | inactive: -0.015 | inactive: 0.011 | inactive: -0.024 | inactive: -0.184 | inactive: 0 | inactive: 0.039 | inactive: 0 | inactive: 0.028 | inactive: -0.066 | inactive: 0.043 | inactive: -0.011 | inactive: -0.004 | inactive: -0.011 | inactive: -0.029 | inactive: -0.013 | inactive: -0.101 | inactive: -0.006 | inactive: 0.008 | inactive: -0.02 | inactive: -0.011
16 | LYPLA2 (UniProt O95372) | inactive: 0.121 | inactive: -0.012 | inactive: 0.005 | inactive: 0.138 | inactive: 0.016 | inactive: -0.096 | inactive: -0.028 | inactive: 0.012 | inactive: 0.039 | inactive: -0.035 | inactive: 0.041 | inactive: -0.032 | inactive: 0.047 | inactive: 0.133 | inactive: -0.001 | inactive: 0.069 | inactive: 0.005 | inactive: -0.036 | inactive: -0.062 | inactive: -0.02

In a second layout: results already given.
Row	Target	log2 fold change [1]	log2 fold change [2]	log2 fold change [3]	log2 fold change [4]	log2 fold change [5]	log2 fold change [6]	log2 fold change [7]	log2 fold change [8]	log2 fold change [9]	log2 fold change [10]	log2 fold change [11]	log2 fold change [12]	log2 fold change [13]	log2 fold change [14]	log2 fold change [15]	log2 fold change [16]	log2 fold change [17]	log2 fold change [18]	log2 fold change [19]	log2 fold change [20]
5	MACC1 (UniProt Q6ZN28)	inactive: -0.041	inactive: -0.094	inactive: -0.067	inactive: 0.034	inactive: 0.003	inactive: -0.031	inactive: -0.049	inactive: 0.072	inactive: -0.153	inactive: 0.053	inactive: -0.014	inactive: -0.074	inactive: -0.073	inactive: 0.005	inactive: 0.057	inactive: -0.045	inactive: -0.016	inactive: 0.032	inactive: -0.043	inactive: 0.02
9	MAGEB1 (UniProt P43366)	inactive: -0.008	inactive: -0.03	inactive: -0.036	inactive: -0.003	inactive: 0.012	inactive: -0.069	inactive: -0.009	inactive: -0.002	inactive: -0.034	inactive: 0.01	inactive: -0.022	inactive: 0.026	inactive: -0.027	inactive: 0.022	inactive: 0.02	inactive: -0.098	inactive: 0.01	inactive: 0.035	inactive: -0.001	inactive: -0.008
